Source: PubChem BioAssay AID743121 (NCATS, 2013)
Shown is one part, drawn at random, of about 26,000 deposited reagents. 167 of them (0.63%) count as active. 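Calls are per gene from RSA p-values that are not deposited; an individual active-marked siRNA can sensitise only weakly.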 Reagents against one gene are numbered here. Reagent sequences are not shown.

- Test: 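Partners whose loss is lethal together with topoisomerase I blockade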 (primary screen)
- System: MDA-MB-231 cells, a human breast cancer line
- Reagent: single siRNA against human genes, 20 nM siRNA (0.8 pmol per well)
- Timing: 120 h (drug added 48 h after transfection, read 72 h later)
- Challenge: camptothecin 20 nM (about EC30) for 72 h; vehicle 0.1% DMSO in parallel plates
- Detection: 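CellTiter-Glo ATP signal, scaled to control siRNA as percent viability; sensitisation given as log2 of untreated divided by camptothecin-treated viability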
- Direction: log2 vehicle/camptothecin viability: higher = stronger sensitisation to camptothecin; viability with camptothecin and viability without drug: higher = more viable cells
- Rule for the call: 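Each gene scored by redundant siRNA activity (RSA) over its individual siRNA ratios; a gene is called active at p < 0.001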

The first 3 entries, ahead of the listing:
Gene | reagent | log2 vehicle/camptothecin viability | viability with camptothecin (% of control) | viability without drug (% of control) | Call
ANGPT1 (angiopoietin 1) | 1 | 0.0744 | 85.9 | 90.4 | inactive
ANGPT1 (angiopoietin 1) | 2 | -0.18 | 104 | 91.5 | inactive
ANGPT1 (angiopoietin 1) | 3 | -0.153 | 88 | 79.2 | inactive

The list itself, repeating the preview:
Gene | reagent | log2 vehicle/camptothecin viability | viability with camptothecin (% of control) | viability without drug (% of control) | Call
ANGPT1 (angiopoietin 1) | 1 | 0.0744 | 85.9 | 90.4 | inactive
ANGPT1 (angiopoietin 1) | 2 | -0.18 | 104 | 91.5 | inactive
ANGPT1 (angiopoietin 1) | 3 | -0.153 | 88 | 79.2 | inactive
ANGPT1 (angiopoietin 1) | 4 | -0.0746 | 105 | 99.8 | inactive
APOE (apolipoprotein E) | 1 | -0.211 | 145 | 125 | inactive
APOE (apolipoprotein E) | 2 | 0.0921 | 60.6 | 64.6 | inactive
APOE (apolipoprotein E) | 3 | -0.197 | 52.3 | 45.6 | inactive
PLCL2 (phospholipase C like 2) | 1 | 0.71 | 46.9 | 76.8 | inactive
PLCL2 (phospholipase C like 2) | 2 | -0.0384 | 93.8 | 91.4 | inactive
PLCL2 (phospholipase C like 2) | 3 | -0.212 | 85.9 | 74.2 | inactive
PLCL2 (phospholipase C like 2) | 4 | -0.0485 | 93 | 90 | inactive
MCM2 (minichromosome maintenance complex component 2) | 1 | -0.683 | 35.8 | 22.3 | inactive
MCM2 (minichromosome maintenance complex component 2) | 2 | -0.219 | 90.3 | 77.6 | inactive
MCM2 (minichromosome maintenance complex component 2) | 3 | -0.279 | 78.8 | 65 | inactive
MCM2 (minichromosome maintenance complex component 2) | 4 | -0.275 | 75.3 | 62.2 | inactive
BPHL (biphenyl hydrolase like) | 1 | -0.0906 | 97.2 | 91.3 | inactive
BPHL (biphenyl hydrolase like) | 2 | -0.356 | 125 | 97.8 | inactive
BPHL (biphenyl hydrolase like) | 3 | -0.357 | 70 | 54.6 | inactive
BPHL (biphenyl hydrolase like) | 4 | 0.126 | 91.3 | 99.7 | inactive
EBI3 (Epstein-Barr virus induced 3) | 1 | -0.324 | 61.6 | 49.2 | inactive
EBI3 (Epstein-Barr virus induced 3) | 2 | -0.644 | 36.8 | 23.6 | inactive
EBI3 (Epstein-Barr virus induced 3) | 3 | -0.31 | 63.6 | 51.3 | inactive
GSR (glutathione-disulfide reductase) | 1 | 0.073 | 86.2 | 90.7 | inactive
GSR (glutathione-disulfide reductase) | 2 | 0.0975 | 50.8 | 54.4 | inactive
GSR (glutathione-disulfide reductase) | 3 | -0.0873 | 104 | 98.1 | inactive
PPP2R2C (protein phosphatase 2 regulatory subunit Bgamma) | 1 | -0.275 | 79 | 65.2 | inactive
PPP2R2C (protein phosphatase 2 regulatory subunit Bgamma) | 2 | -0.0718 | 94.6 | 90 | inactive
PPP2R2C (protein phosphatase 2 regulatory subunit Bgamma) | 3 | -0.0499 | 101 | 97.3 | inactive
PPP2R2C (protein phosphatase 2 regulatory subunit Bgamma) | 4 | -0.309 | 118 | 95.5 | inactive
PMS1 (PMS1 homolog 1, mismatch repair system component) | 1 | -0.229 | 130 | 111 | inactive
PMS1 (PMS1 homolog 1, mismatch repair system component) | 2 | -0.169 | 77 | 68.5 | inactive
PMS1 (PMS1 homolog 1, mismatch repair system component) | 3 | -0.367 | 115 | 89.1 | inactive
PMS1 (PMS1 homolog 1, mismatch repair system component) | 4 | -0.111 | 109 | 101 | inactive
KCNK10 (potassium two pore domain channel subfamily K member 10) | 1 | -0.148 | 60 | 54.2 | inactive
KCNK10 (potassium two pore domain channel subfamily K member 10) | 2 | 0.116 | 82.4 | 89.3 | inactive
KCNK10 (potassium two pore domain channel subfamily K member 10) | 3 | -0.355 | 42.9 | 33.6 | inactive
KCNK10 (potassium two pore domain channel subfamily K member 10) | 4 | 0.433 | 65 | 87.8 | inactive
ANKH (ANKH inorganic pyrophosphate transport regulator) | 1 | -0.459 | 87.3 | 63.5 | inactive
ANKH (ANKH inorganic pyrophosphate transport regulator) | 2 | 0.368 | 67.3 | 86.9 | inactive
ANKH (ANKH inorganic pyrophosphate transport regulator) | 3 | -0.353 | 47.9 | 37.5 | inactive
ANKH (ANKH inorganic pyrophosphate transport regulator) | 4 | 0.13 | 53.9 | 58.9 | inactive
WDHD1 (WD repeat and HMG-box DNA binding protein 1) | 1 | 0.0802 | 66.9 | 70.7 | inactive
WDHD1 (WD repeat and HMG-box DNA binding protein 1) | 2 | -0.154 | 69.6 | 62.5 | inactive
WDHD1 (WD repeat and HMG-box DNA binding protein 1) | 3 | 0.823 | 13.6 | 24 | inactive
WDHD1 (WD repeat and HMG-box DNA binding protein 1) | 4 | -0.531 | 34.1 | 23.6 | inactive
GPR151 (G protein-coupled receptor 151) | 1 | -0.138 | 38.9 | 35.4 | inactive
GPR151 (G protein-coupled receptor 151) | 2 | -0.0739 | 85.6 | 81.3 | inactive
GPR151 (G protein-coupled receptor 151) | 3 | -0.346 | 102 | 79.9 | inactive
GPR151 (G protein-coupled receptor 151) | 4 | 0.096 | 93.2 | 99.6 | inactive
MKNK2 (MAPK interacting serine/threonine kinase 2) | 1 | -0.409 | 113 | 85.1 | inactive
MKNK2 (MAPK interacting serine/threonine kinase 2) | 2 | -0.227 | 139 | 119 | inactive
MKNK2 (MAPK interacting serine/threonine kinase 2) | 3 | -0.618 | 97.9 | 63.8 | inactive
MKNK2 (MAPK interacting serine/threonine kinase 2) | 4 | -0.595 | 90.6 | 60 | inactive
HNF4A (hepatocyte nuclear factor 4 alpha) | 1 | -0.153 | 45.6 | 41 | inactive
HNF4A (hepatocyte nuclear factor 4 alpha) | 2 | -0.22 | 86.5 | 74.3 | inactive
HNF4A (hepatocyte nuclear factor 4 alpha) | 3 | -0.174 | 80.8 | 71.6 | inactive
AP3D1 (adaptor related protein complex 3 subunit delta 1) | 1 | -0.317 | 90.9 | 73 | inactive
AP3D1 (adaptor related protein complex 3 subunit delta 1) | 2 | -0.182 | 67.2 | 59.3 | inactive
AP3D1 (adaptor related protein complex 3 subunit delta 1) | 3 | 0.421 | 45.7 | 61.2 | inactive
BDNF (brain derived neurotrophic factor) | 1 | -0.167 | 117 | 104 | inactive
BDNF (brain derived neurotrophic factor) | 2 | -0.467 | 89.5 | 64.8 | inactive
BDNF (brain derived neurotrophic factor) | 3 | 0.115 | 92.2 | 99.9 | inactive
BDNF (brain derived neurotrophic factor) | 4 | -0.124 | 80.5 | 73.9 | inactive
DNAH7 (dynein axonemal heavy chain 7) | 1 | -0.1 | 65 | 60.6 | inactive
DNAH7 (dynein axonemal heavy chain 7) | 2 | 0.435 | 34.9 | 47.1 | inactive
DNAH7 (dynein axonemal heavy chain 7) | 3 | -0.578 | 102 | 68.3 | inactive
DNAH7 (dynein axonemal heavy chain 7) | 4 | -0.135 | 79.3 | 72.2 | inactive
OPTN (optineurin) | 1 | -0.247 | 92.3 | 77.8 | inactive
OPTN (optineurin) | 2 | -0.0919 | 110 | 103 | inactive
OPTN (optineurin) | 3 | 0.0187 | 71.3 | 72.2 | inactive
OPTN (optineurin) | 4 | 0.0635 | 90.1 | 94.2 | inactive
